Experiments:
Type in all cases: cell-based
MDA-MB-231 (breast) = assay: In vitro cytotoxic activity assay (MTT), MDA-MB-231; conditions: Homo sapiens; MDA-MB-231 (breast) cells, exposed for 96 hours; read-out: Cytotoxicity activity IC50 (50% inhibition of cell proliferation)
Experimental: (§1) Compounds 1-16 were screened for their in vitro cytotoxic activity utilizing a 3-(4,5-dimethyl-thiazol-2-yl)-2,5-diphenyltetrazolium bromide (MTT) assay against selected cancer human cell lines consisting of PC3 (prostate), HCT116 (colon), A375 (melanoma), H1299 (lung), MIAPaCa-2 (pancreas), HL60 (leukemia), MCF7 (breast), MDA-MB-231 (breast) (T. Mosmann, J. Immunol. Meth., 1983, 65, 55-63). The cells were cultured at 37° C. in RMPI1640 medium supplemented with 10% fetal bovine serum, 50 IU/mL penicillin, and 50 μg/mL streptomycin in a 5% CO2 incubator. All cells were sub-cultured 3 times/week by trypsinisation. Viable cells were seeded and allowed to adhere for 12 h before a test drug was added in 96-well plates at an initial density of 1.0×10^5 cells/mL. Tumor cell lines were separately exposed to various concentrations of the tested compounds followed by incubation at a temperature of 37° C. during 96 hours inside a medium of fresh RMPI 1640. Cells were subsequently incubated at 37° C. using MTT at 0.5 mg/mL during 4 hours. After removal of supernatant, formazan crystals were dissolved in isopropanol and the optical density was measured at 570 nm. CX-4945 was used as a positive control.

HL60 (leukemia) = assay: In vitro cytotoxic activity assay (MTT), HL60; conditions: Homo sapiens, HL-60; HL60 (leukemia) cells, exposed for 96 hours; read-out: Cytotoxicity activity IC50 (50% inhibition of cell proliferation)
Experimental: as §1

PC3 (prostate) = assay: In vitro cytotoxic activity assay (MTT), PC3; conditions: Homo sapiens, Prostate cell; PC3 (prostate) cells, exposed for 96 hours; read-out: Cytotoxicity activity IC50 (50% inhibition of cell proliferation)
Experimental: as §1

A375 (melanoma) = assay: In vitro cytotoxic activity assay (MTT), A375; conditions: Homo sapiens, A-375; A375 (melanoma) cells, exposed for 96 hours; read-out: Cytotoxicity activity IC50 (50% inhibition of cell proliferation)
Experimental: as §1

MIAPaCa-2 (pancreas) = assay: In vitro cytotoxic activity assay (MTT), MIAPaCa-2; conditions: Homo sapiens, MIA PaCa-2; MIAPaCa-2 (pancreas) cells, exposed for 96 hours; read-out: Cytotoxicity activity IC50 (50% inhibition of cell proliferation)
Experimental: as §1

H1299 (lung) = assay: In vitro cytotoxic activity assay (MTT), H1299; conditions: Homo sapiens, NCI-H1299; H1299 (lung) cells, exposed for 96 hours; read-out: Cytotoxicity activity IC50 (50% inhibition of cell proliferation)
Experimental: as §1

HCT116 (colon) = assay: In vitro cytotoxic activity assay (MTT), HCT116; conditions: Homo sapiens, HCT-116; HCT116 (colon) cells, exposed for 96 hours; read-out: Cytotoxicity activity IC50 (50% inhibition of cell proliferation)
Experimental: as §1

MCF7 (breast) = assay: In vitro cytotoxic activity assay (MTT), MCF7; conditions: Homo sapiens; MCF7 (breast) cells, exposed for 96 hours; read-out: Cytotoxicity activity IC50 (50% inhibition of cell proliferation)
Experimental: as §1

O=C(O)c1ccc2c(c1)nc(Nc1cccc(Cl)c1)c1ccncc12 [CX-4945, reference compound]
IC50 (MDA-MB-231 (breast)): 6200 nM
IC50 (HL60 (leukemia)): 3700 nM
IC50 (PC3 (prostate)): 2000 nM
IC50 (A375 (melanoma)): 4100 nM
IC50 (MIAPaCa-2 (pancreas)): 1000 nM
IC50 (H1299 (lung)): 2300 nM
IC50 (HCT116 (colon)): 2300 nM
IC50 (MCF7 (breast)): 9100 nM
